# Reference: the supplement of paper PMC12819154, “High-throughput peptide-centric local stability assay extends protein–ligand identification to membrane proteins, tissues and bacteria” (Nature Structural & Molecular Biology, 2025)
# Chains of the proteins cited; added tags and fusions are not shown. Lines headed by an entry give the natural chain unless they say otherwise; changes in a name come on top.
# UniProt P77154: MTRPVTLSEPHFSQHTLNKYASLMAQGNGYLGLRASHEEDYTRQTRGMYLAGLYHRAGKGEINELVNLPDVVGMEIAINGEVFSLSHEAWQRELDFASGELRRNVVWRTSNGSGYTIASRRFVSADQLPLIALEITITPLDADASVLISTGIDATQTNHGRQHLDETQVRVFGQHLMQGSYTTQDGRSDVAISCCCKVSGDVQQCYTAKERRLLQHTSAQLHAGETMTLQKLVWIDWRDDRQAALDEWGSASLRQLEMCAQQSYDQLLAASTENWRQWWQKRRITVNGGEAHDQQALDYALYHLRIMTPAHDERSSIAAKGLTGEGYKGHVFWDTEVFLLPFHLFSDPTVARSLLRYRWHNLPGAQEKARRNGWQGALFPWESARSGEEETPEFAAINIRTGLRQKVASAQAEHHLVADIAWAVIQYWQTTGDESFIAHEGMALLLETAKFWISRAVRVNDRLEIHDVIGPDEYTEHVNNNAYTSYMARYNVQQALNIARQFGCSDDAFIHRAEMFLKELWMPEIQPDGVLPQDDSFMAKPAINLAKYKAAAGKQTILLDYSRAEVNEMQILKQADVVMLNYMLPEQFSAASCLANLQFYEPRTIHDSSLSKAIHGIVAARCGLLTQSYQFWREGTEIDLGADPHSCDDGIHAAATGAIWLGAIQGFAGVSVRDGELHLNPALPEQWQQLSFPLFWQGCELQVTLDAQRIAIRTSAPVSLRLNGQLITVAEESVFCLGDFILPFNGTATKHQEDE
# UniProt P76220: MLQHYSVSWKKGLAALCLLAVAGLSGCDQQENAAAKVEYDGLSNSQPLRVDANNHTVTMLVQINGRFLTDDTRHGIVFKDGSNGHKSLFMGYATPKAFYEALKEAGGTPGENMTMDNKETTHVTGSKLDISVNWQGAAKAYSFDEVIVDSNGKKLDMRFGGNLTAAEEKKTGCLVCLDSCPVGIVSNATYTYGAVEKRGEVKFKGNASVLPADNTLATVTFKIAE
# UniProt P75809: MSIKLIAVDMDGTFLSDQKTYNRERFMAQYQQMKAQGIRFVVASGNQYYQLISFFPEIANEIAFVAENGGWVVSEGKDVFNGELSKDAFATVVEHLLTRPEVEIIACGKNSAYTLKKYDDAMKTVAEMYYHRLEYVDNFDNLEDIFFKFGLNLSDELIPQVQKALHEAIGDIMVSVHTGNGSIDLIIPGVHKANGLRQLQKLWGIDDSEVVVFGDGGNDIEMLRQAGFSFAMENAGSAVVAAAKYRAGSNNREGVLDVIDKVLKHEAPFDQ
# UniProt P76561: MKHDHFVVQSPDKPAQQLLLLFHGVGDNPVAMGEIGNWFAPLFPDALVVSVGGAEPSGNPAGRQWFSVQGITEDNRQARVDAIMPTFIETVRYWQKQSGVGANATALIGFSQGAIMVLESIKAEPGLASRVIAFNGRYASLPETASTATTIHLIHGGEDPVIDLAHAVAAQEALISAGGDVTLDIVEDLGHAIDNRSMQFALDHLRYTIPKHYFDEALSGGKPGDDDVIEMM
# UniProt P75913: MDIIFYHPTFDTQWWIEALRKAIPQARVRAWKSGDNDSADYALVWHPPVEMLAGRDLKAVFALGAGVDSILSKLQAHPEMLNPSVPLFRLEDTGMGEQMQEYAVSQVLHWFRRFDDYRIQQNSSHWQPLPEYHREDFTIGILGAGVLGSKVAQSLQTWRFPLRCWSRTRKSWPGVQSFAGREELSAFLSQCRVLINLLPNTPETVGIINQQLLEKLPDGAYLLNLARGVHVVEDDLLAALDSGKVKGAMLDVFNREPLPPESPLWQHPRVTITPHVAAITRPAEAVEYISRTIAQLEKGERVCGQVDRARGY
# UniProt P76219: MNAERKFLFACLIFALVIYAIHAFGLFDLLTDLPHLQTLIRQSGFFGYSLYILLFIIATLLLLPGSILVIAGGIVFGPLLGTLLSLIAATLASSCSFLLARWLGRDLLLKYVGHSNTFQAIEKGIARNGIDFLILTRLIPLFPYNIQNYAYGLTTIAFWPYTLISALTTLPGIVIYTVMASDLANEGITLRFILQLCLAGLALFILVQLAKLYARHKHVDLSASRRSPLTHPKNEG
# UniProt P76082: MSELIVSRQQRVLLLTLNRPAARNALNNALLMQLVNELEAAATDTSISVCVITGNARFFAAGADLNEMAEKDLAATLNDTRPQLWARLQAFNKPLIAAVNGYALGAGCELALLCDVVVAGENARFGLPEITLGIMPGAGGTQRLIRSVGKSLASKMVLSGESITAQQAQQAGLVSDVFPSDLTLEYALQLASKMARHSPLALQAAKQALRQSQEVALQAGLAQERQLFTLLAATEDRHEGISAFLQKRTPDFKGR
# UniProt P76156: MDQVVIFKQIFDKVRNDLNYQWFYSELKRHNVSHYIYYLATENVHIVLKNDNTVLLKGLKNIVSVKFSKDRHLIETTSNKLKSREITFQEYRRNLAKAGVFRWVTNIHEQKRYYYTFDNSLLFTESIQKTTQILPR
# UniProt P76223: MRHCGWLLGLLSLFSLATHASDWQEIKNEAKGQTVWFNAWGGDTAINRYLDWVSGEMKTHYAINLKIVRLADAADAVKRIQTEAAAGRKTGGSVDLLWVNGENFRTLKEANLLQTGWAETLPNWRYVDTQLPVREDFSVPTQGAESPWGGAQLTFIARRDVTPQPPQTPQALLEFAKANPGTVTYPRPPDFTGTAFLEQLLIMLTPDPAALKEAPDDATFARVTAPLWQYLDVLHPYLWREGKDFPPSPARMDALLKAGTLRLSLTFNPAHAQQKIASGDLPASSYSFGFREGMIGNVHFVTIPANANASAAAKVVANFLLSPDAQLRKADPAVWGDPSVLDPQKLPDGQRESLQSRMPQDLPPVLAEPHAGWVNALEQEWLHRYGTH
# UniProt P75862: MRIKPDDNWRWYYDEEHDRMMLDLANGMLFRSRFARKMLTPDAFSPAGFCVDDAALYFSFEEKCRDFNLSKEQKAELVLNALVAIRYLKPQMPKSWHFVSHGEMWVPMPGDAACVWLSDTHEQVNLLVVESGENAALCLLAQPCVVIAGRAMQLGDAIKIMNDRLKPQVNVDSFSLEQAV
# UniProt P71242: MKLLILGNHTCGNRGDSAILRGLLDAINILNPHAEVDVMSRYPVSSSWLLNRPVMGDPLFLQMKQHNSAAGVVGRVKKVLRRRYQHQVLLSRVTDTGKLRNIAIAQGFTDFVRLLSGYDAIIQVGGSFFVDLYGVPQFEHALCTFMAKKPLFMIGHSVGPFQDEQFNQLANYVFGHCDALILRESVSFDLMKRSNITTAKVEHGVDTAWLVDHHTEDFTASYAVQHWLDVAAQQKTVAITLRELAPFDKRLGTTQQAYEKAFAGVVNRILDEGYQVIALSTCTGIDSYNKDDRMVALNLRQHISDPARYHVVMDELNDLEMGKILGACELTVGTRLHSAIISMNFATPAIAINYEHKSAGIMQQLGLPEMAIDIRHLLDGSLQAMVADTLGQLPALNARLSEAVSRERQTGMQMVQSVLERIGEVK
# UniProt P75966: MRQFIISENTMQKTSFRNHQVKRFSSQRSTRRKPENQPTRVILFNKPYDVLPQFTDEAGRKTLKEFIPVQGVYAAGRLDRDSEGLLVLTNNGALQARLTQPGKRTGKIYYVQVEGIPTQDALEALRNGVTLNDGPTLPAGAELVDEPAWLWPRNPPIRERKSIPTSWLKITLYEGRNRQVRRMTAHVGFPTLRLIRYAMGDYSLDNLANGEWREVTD
# UniProt P76073: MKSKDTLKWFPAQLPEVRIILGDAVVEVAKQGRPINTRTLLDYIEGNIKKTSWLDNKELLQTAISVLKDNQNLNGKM
# UniProt P75931: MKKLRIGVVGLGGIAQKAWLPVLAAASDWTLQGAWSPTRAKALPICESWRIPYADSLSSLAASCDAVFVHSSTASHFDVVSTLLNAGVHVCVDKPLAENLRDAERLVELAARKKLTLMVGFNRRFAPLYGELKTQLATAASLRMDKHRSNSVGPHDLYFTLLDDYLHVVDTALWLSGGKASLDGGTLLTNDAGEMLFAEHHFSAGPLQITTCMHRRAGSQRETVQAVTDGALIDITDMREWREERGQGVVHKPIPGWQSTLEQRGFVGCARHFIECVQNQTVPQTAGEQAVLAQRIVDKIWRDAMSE
# UniProt P76063: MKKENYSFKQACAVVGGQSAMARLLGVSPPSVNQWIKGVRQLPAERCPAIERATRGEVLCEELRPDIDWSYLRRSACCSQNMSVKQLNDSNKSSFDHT
# UniProt P77161: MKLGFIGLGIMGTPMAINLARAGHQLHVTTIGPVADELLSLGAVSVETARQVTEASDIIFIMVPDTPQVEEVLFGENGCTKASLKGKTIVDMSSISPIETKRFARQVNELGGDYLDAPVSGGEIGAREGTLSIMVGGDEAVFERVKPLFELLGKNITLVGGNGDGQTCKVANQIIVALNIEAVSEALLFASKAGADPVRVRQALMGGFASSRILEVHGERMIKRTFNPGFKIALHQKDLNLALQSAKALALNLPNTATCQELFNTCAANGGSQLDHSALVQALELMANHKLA
# UniProt P76540: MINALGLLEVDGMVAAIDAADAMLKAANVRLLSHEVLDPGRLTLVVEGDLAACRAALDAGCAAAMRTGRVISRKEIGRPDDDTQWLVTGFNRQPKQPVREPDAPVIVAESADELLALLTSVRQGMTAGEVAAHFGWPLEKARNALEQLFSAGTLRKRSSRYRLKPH
# UniProt P76548: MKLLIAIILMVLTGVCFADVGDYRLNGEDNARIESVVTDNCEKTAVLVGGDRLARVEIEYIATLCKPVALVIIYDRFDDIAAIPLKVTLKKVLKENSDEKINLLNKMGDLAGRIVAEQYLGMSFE
# UniProt P76250: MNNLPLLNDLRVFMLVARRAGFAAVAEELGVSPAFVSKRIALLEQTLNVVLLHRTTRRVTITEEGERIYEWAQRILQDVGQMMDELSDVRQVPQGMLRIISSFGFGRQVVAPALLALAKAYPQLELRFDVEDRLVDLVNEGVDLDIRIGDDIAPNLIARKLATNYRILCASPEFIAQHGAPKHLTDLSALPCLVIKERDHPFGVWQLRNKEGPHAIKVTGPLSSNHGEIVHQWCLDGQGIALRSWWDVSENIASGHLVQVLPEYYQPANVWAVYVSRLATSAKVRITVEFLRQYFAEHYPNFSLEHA
# UniProt P76044: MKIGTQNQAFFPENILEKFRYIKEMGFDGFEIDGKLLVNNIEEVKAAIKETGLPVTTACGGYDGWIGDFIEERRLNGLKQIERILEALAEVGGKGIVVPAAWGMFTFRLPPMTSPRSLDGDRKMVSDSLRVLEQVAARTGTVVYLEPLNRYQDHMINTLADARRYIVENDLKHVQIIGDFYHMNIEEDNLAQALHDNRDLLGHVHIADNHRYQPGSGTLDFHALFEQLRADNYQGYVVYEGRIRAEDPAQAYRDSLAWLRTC
# UniProt P77162: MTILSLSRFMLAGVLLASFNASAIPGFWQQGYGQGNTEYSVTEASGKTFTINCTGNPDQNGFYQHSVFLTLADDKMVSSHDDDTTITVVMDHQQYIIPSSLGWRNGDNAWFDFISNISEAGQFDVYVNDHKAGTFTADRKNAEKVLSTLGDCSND
# UniProt P67662: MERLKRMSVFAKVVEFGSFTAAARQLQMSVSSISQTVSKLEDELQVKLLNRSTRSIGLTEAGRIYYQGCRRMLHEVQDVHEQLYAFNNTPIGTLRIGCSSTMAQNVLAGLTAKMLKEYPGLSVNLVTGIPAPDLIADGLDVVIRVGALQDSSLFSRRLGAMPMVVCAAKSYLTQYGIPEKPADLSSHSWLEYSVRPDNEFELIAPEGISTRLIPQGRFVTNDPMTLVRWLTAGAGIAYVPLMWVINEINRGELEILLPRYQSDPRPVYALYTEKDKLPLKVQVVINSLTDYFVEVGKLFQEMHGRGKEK
# UniProt P76406: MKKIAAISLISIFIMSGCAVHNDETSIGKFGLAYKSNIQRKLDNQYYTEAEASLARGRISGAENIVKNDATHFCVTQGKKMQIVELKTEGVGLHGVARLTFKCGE
# UniProt P76546: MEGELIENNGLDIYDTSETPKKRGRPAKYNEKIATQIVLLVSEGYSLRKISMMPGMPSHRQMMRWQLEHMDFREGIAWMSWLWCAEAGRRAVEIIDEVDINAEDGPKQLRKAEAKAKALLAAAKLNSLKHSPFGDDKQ
# UniProt P69423: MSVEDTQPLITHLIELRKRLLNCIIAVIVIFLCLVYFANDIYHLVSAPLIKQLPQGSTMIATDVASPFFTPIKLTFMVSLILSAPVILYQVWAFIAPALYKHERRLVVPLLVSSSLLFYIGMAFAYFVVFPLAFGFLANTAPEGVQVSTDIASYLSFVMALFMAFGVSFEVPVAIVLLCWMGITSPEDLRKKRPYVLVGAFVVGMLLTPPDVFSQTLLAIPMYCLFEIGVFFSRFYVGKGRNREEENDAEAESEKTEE
# UniProt P75616: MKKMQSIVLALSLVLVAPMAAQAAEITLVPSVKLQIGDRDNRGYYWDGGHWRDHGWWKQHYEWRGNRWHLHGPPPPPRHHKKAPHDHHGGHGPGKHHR
# UniProt P75988: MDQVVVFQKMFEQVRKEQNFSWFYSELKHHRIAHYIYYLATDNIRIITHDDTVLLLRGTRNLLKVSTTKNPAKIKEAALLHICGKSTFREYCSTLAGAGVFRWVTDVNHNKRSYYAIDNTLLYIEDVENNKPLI
# This is a selection; strong and weak results do not stand in their true shares. Most entries show no effect beyond the scatter of the controls.
# Compound: Nc1ncnc2c1ncn2[C@@H]1O[C@H](COP(=O)(O)OP(=O)(O)OP(=O)(O)O)[C@@H](O)[C@H]1O [adenosine 5'-triphosphate]
# Assay: log2 fold change of tryptic peptide abundance, ligand vs vehicle (limited proteolysis) (log2 ratio); higher = more trypsin-susceptible (destabilized)
# Conditions: ligand concentration: 5 mM; sample: E. coli desalted lysate; replicate design: treated before aliquoting
# Experimental: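 HT-PELSA: desalted E. coli K-12 BW25113 lysate (with 12 mM MgCl2) incubated with 5 mM ATP (pH 7) or water for 30 min at 25 C, then a 4 min trypsin pulse at 22 C. Peptides were quantified by DIA-MS (4 replicates). Value is the peptide log2 fold change (treated/control); negative = stabilized. Scale: negative = ligand-stabilized region.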
# 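Also: lysate desalted by size exclusion to strip endogenous ATP, peptide intensities built from DIA-NN precursor signals, and peptides missing any value discarded before comparison.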
row,Target,log2 fold change
1,"UniProt P77154 (peptide sequence: SDVAISCCCK, peptide start residue: 188)",-0.541
2,"UniProt P76220 (peptide sequence: FGGNLTAAEEK, peptide start residue: 159)",0.608
3,"UniProt P75783 (peptide sequence: ELIDQLR, peptide start residue: 64)",0.331
4,"UniProt P76425 (peptide sequence: AHANDIKR, peptide start residue: 156)",-0.628
5,"UniProt P76102 (peptide sequence: FQLRPGGQQECEMR, peptide start residue: 9)",-0.392
6,"UniProt P75809 (peptide sequence: KYDDAMK, peptide start residue: 117)",0.239
7,"UniProt P77165 (peptide sequence: TEQLEVDTR, peptide start residue: 71)",0.027
8,"UniProt P75867 (peptide sequence: ASSSFMLAK, peptide start residue: 54)",0.471
9,"UniProt P76561 (peptide sequence: SMQFALDHLR, peptide start residue: 197)",0.0352
10,"UniProt P76237 (peptide sequence: LYVNKQNK, peptide start residue: 485)",0.249
11,"UniProt P75913 (peptide sequence: GVHVVEDDLLAALDSGKVK, peptide start residue: 228)",0.637
12,"UniProt P76086 (peptide sequence: EGWLDVSR, peptide start residue: 67)",0.671
13,"UniProt P76219 (peptide sequence: RSPLTHPK, peptide start residue: 226)",-0.00722
14,"UniProt P76082 (peptide sequence: HSPLALQAAK, peptide start residue: 197)",0.5
15,"UniProt P76539 (peptide sequence: RLIEDEEY, peptide start residue: 134)",0.598
16,"UniProt P76156 (peptide sequence: NDLNYQWFYSELKR, peptide start residue: 16)",0.314
17,"UniProt P75831 (peptide sequence: AQVVVLDSNTR, peptide start residue: 399)",0.0674
18,"UniProt P76510 (peptide sequence: VILCLTR, peptide start residue: 94)",-0.11
19,"UniProt P76072 (peptide sequence: AGEATEQASAAAR, peptide start residue: 341)",-0.0808
20,"UniProt P76223 (peptide sequence: YLDWVSGEMK, peptide start residue: 49)",-0.491

# Copied from the list.
# Value for UniProt P76220 (peptide sequence: FGGNLTAAEEK, peptide start residue: 159) under log2 fold change: 0.608
# Value for UniProt P76237 (peptide sequence: LYVNKQNK, peptide start residue: 485) under log2 fold change: 0.249

# Following part

row,Target,log2 fold change
1,"UniProt P75862 (peptide sequence: YLKPQMPK, peptide start residue: 87)",0.804
2,"UniProt P71242 (peptide sequence: RYQHQVLLSR, peptide start residue: 83)",0.308
3,"UniProt P75966 (peptide sequence: EFIPVQGVYAAGRLDR, peptide start residue: 65)",0.168
4,"UniProt P76073 (peptide sequence: TLLDYIEGNIKK, peptide start residue: 39)",0.0101
5,"UniProt P75931 (peptide sequence: ALPICESWR, peptide start residue: 42)",0.468
6,"UniProt P76063 (peptide sequence: QLPAERCPAIER, peptide start residue: 41)",-0.333
7,"UniProt P76655 (peptide sequence: LYLSGTSQR, peptide start residue: 622)",-0.499
8,"UniProt P77161 (peptide sequence: QALMGGFASSR, peptide start residue: 202)",0.627
9,"UniProt P76540 (peptide sequence: EIGRPDDDTQWLVTGFNRQPK, peptide start residue: 75)",0.184
10,"UniProt P76548 (peptide sequence: IESVVTDNCEK, peptide start residue: 33)",0.32
11,"UniProt P76250 (peptide sequence: QVVAPALLALAK, peptide start residue: 108)",-0.312
12,"UniProt P76044 (peptide sequence: DLLGHVHIADNHR, peptide start residue: 199)",-0.0815
13,"UniProt P77162 (peptide sequence: AGTFTADRK, peptide start residue: 132)",0.558
14,"UniProt P67662 (peptide sequence: LEDELQVK, peptide start residue: 40)",0.311
15,"UniProt P76406 (peptide sequence: ISGAENIVK, peptide start residue: 59)",-0.253
16,"UniProt P76546 (peptide sequence: HSPFGDDKQ, peptide start residue: 130)",-0.602
17,"UniProt P69423 (peptide sequence: NREEENDAEAESEKTEE, peptide start residue: 242)",-0.224
18,"UniProt P75616 (peptide sequence: WHLHGPPPPPR, peptide start residue: 68)",-0.338
19,"UniProt P75672 (peptide sequence: KTSPYNSR, peptide start residue: 145)",-0.236
20,"UniProt P75988 (peptide sequence: MFEQVRK, peptide start residue: 10)",0.339
